The assay addresses T1, FLAG-GSDMB (Gasdermin B) (human) (UniProt Q8TAX9).
T1 sequence: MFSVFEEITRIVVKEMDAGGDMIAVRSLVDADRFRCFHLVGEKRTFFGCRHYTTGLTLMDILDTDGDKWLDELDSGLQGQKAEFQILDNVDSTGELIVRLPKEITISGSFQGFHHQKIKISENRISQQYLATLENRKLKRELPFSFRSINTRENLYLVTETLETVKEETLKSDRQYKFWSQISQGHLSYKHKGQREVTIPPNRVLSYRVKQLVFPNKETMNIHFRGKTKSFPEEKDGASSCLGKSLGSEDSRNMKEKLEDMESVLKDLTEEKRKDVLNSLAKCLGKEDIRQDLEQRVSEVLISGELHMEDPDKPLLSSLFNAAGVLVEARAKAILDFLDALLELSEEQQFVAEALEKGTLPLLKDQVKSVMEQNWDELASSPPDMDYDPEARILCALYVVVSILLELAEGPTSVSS
Nature of the assay: co-IP; HEK293 cells co-transfected with a FLAG-tagged and an HA-tagged protein; IP with anti-FLAG beads, immunoblot with HA antibody.

Sequences of proteins named here, by UniProt entry; tags and fusion partners are left off.
UniProt Q86WV6: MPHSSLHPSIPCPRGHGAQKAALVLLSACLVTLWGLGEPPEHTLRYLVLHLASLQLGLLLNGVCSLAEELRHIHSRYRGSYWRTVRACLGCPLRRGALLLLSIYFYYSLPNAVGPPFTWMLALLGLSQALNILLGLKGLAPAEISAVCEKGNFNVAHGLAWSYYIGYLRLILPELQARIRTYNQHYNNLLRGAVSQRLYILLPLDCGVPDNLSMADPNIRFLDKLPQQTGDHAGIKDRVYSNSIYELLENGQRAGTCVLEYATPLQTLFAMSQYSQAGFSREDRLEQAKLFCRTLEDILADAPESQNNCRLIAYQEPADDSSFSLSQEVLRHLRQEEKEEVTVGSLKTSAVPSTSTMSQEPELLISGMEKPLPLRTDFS

These are yes or no findings as the source states them, for the method shown. In cells and extracts the contact can be indirect. Some results given as binding are weak or reduced against the parent protein; the word gives no strength. Tags and fused reporters may be left off the sequences shown.

As for “HA-STING (stimulator of interferon genes) (from UniProt Q86WV6 1-379)”, the binding entry is on record as “binds”.

(Values after paper PMC11086750.)
